{"source": "paper doi:10.1101/2025.06.20.660829", "target": "3xFlag-DCTD (distal C-terminus of CaV1.3 α1D) (not stated (human or rat cDNA cloned)) (UniProt Q01668)", "test": "co-IP", "note": "No constants are given. Whether binding was seen depends on the method and setting. Binding seen in cells or lysates may run through a third protein. Binding calls can cover weak binding; strength is not graded here. Where a sequence is shown, tags or fusion partners need not be part of it.", "data": [{"binder": "ANAAAAKIQASFRGHMARKKIK (domain or fragment, UniProt Q04940 26-47)", "note": "[IQNg, HA-tagged]", "values": [{"measurement": "binding", "result": "binds"}]}]}
